# According to the supplement of paper PMC8728848:
# This is one part of the list.
# B1: BabA (Helicobacter pylori), O52269_HELPY (protein)
# chain: AEDDGFYMSAGYQIGEAAQMVKNTKGIQELSDNYENLSNLLTRYSTLNTLIKLSADPSAVNAARENLGASAKNLIGDTKNSPAYQAVLLAINAAVGFWNVVGYVTQCGGNANGQKSTSSTTIFNNEPGYRSTSITCSLNGHMPGYYGPMSIENFKKLNEAYQILQTALKNGLPALKENNGTVNVTYSYTCSGEGNDNCSLQTTGVTNQNNGTKTETQTIDGKSVTTTISSKVVDSQ
# Tests used:
# Experiment in all cases: glycan array binding signal (z-score within array); higher = stronger binding
# Conditions in all cases: glycan notation: IUPAC condensed, linker removed
# [1] = target: Neu5Ac(a2-3)Gal(b1-4)GlcNAc(b1-2)Man(a1-3)[Neu5Ac(a2-6)Gal(b1-4)GlcNAc(b1-2)Man(a1-6)]Man(b1-4)GlcNAc(b1-4)GlcNAc
# Summary of the method: (§1)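 The binding signal is a Z-score computed within each array. Data were drawn from 3228 arrays in the Consortium for Functional Glycomics database, restricted to those with a known protein sequence. Scores were averaged over arrays of the same protein sequence at different concentrations or buffers, and over linkers, and negative values can be taken as non-binding.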
# [2] = target: Neu5Ac(a2-3)Gal(b1-4)GlcNAc(b1-2)[Neu5Ac(a2-3)Gal(b1-4)GlcNAc(b1-4)]Man(a1-3)[GlcNAc(b1-4)][Neu5Ac(a2-3)Gal(b1-4)GlcNAc(b1-2)[Neu5Ac(a2-3)Gal(b1-4)GlcNAc(b1-6)]Man(a1-6)]Man(b1-4)GlcNAc(b1-4)GlcNAc
# Summary of the method: as §1
# [3] = target: Neu5Ac(a2-3)Gal(b1-4)GlcNAc(b1-2)[Neu5Ac(a2-3)Gal(b1-4)GlcNAc(b1-4)]Man(a1-3)[GlcNAc(b1-4)][Neu5Ac(a2-3)Gal(b1-4)GlcNAc(b1-4)Man(a1-6)]Man(b1-4)GlcNAc(b1-4)GlcNAc
# Summary of the method: as §1
# [4] = target: Neu5Ac(a2-3)Gal(b1-4)GlcNAc(b1-2)[Neu5Ac(a2-3)Gal(b1-4)GlcNAc(b1-6)]Man(a1-6)[Neu5Ac(a2-3)Gal(b1-4)GlcNAc(b1-2)Man(a1-3)][GlcNAc(b1-4)]Man(b1-4)GlcNAc(b1-4)GlcNAc
# Summary of the method: as §1
# [5] = target: Neu5Ac(a2-3)Gal(b1-4)GlcNAc(b1-3)Gal
# Summary of the method: as §1
# [6] = target: Neu5Ac(a2-3)Gal(b1-4)GlcNAc(b1-3)Gal(b1-3)GlcNAc
# Summary of the method: as §1
# [7] = target: Neu5Ac(a2-3)Gal(b1-4)GlcNAc(b1-3)Gal(b1-4)GlcNAc
# Summary of the method: as §1
# [8] = target: Neu5Ac(a2-3)Gal(b1-4)GlcNAc(b1-3)Gal(b1-4)GlcNAc(b1-2)Man(a1-3)[Neu5Ac(a2-3)Gal(b1-4)GlcNAc(b1-3)Gal(b1-4)GlcNAc(b1-2)Man(a1-6)]Man(b1-4)GlcNAc(b1-4)GlcNAc
# Summary of the method: as §1
# [9] = target: Neu5Ac(a2-3)Gal(b1-4)GlcNAc(b1-3)Gal(b1-4)GlcNAc(b1-3)Gal(b1-4)GlcNAc
# Summary of the method: as §1
# [10] = target: Neu5Ac(a2-3)Gal(b1-4)GlcNAc(b1-3)Gal(b1-4)GlcNAc(b1-3)Gal(b1-4)GlcNAc(b1-2)Man(a1-3)[Neu5Ac(a2-3)Gal(b1-4)GlcNAc(b1-3)Gal(b1-4)GlcNAc(b1-3)Gal(b1-4)GlcNAc(b1-2)Man(a1-6)]GalNAc
# Summary of the method: as §1
# [11] = target: Neu5Ac(a2-3)Gal(b1-4)GlcNAc(b1-3)Gal(b1-4)GlcNAc(b1-3)GalNAc
# Summary of the method: as §1
# [12] = target: Neu5Ac(a2-3)Gal(b1-4)GlcNAc(b1-3)Gal(b1-4)GlcNAc(b1-3)[Neu5Ac(a2-3)Gal(b1-4)GlcNAc(b1-3)Gal(b1-4)GlcNAc(b1-6)]GalNAc
# Summary of the method: as §1
# [13] = target: Neu5Ac(a2-3)Gal(b1-4)GlcNAc(b1-3)Gal(b1-4)GlcNAc(b1-6)[Gal(b1-3)]GalNAc
# Summary of the method: as §1
# [14] = target: Neu5Ac(a2-3)Gal(b1-4)GlcNAc(b1-3)Gal(b1-4)[Fuc(a1-3)]GlcNAc
# Summary of the method: as §1
# [15] = target: Neu5Ac(a2-3)Gal(b1-4)GlcNAc(b1-3)GalNAc
# Summary of the method: as §1
# [16] = target: Neu5Ac(a2-3)Gal(b1-4)GlcNAc(b1-3)[Neu5Ac(a2-3)Gal(b1-4)GlcNAc(b1-6)]GalNAc
# Summary of the method: as §1
# [17] = target: Neu5Ac(a2-3)Gal(b1-4)GlcNAc(b1-6)GalNAc
# Summary of the method: as §1
# [18] = target: Neu5Ac(a2-3)Gal(b1-4)GlcNAc(b1-6)[Gal(b1-3)]GalNAc
# Summary of the method: as §1
# [19] = target: Neu5Ac(a2-3)Gal(b1-4)GlcNAc(b1-6)[Neu5Ac(a2-3)Gal(b1-3)]GalNAc
# Summary of the method: as §1
# [20] = target: Neu5Ac(a2-3)Gal(b1-4)GlcNAc6S
# Summary of the method: as §1
# [21] = target: Neu5Ac(a2-3)Gal(b1-4)[Fuc(a1-3)]GlcNAc
# Summary of the method: as §1
# [22] = target: Neu5Ac(a2-3)Gal(b1-4)[Fuc(a1-3)]GlcNAc(b1-2)Man
# Summary of the method: as §1
# [23] = target: Neu5Ac(a2-3)Gal(b1-4)[Fuc(a1-3)]GlcNAc(b1-3)Gal
# Summary of the method: as §1
# [24] = target: Neu5Ac(a2-3)Gal(b1-4)[Fuc(a1-3)]GlcNAc(b1-3)Gal(b1-4)GlcNAc
# Summary of the method: as §1
# [25] = target: Neu5Ac(a2-3)Gal(b1-4)[Fuc(a1-3)]GlcNAc(b1-3)Gal(b1-4)[Fuc(a1-3)]GlcNAc(b1-3)Gal(b1-4)[Fuc(a1-3)]GlcNAc
# Summary of the method: as §1
# [26] = target: Neu5Ac(a2-3)Gal(b1-4)[Fuc(a1-3)]GlcNAc(b1-3)GalNAc
# Summary of the method: as §1
# [27] = target: Neu5Ac(a2-3)Gal(b1-4)[Fuc(a1-3)]GlcNAc(b1-6)[Gal(b1-3)]GalNAc
# Summary of the method: as §1
# [28] = target: Neu5Ac(a2-3)Gal(b1-4)[Fuc(a1-3)]GlcNAc(b1-6)[Neu5Ac(a2-3)Gal(b1-3)]GalNAc
# Summary of the method: as §1
# [29] = target: Neu5Ac(a2-3)Gal(b1-4)[Fuc(a1-3)]GlcNAc6S
# Summary of the method: as §1
# [30] = target: Neu5Ac(a2-3)Gal6S(b1-4)GlcNAc
# Summary of the method: as §1
# [31] = target: Neu5Ac(a2-3)Gal6S(b1-4)[Fuc(a1-3)]GlcNAc
# Summary of the method: as §1
# [32] = target: Neu5Ac(a2-3)GalNAc
# Summary of the method: as §1
# [33] = target: Neu5Ac(a2-3)GalNAc(b1-4)GlcNAc
# Summary of the method: as §1
# [34] = target: Neu5Ac(a2-3)[GalNAc(b1-4)]Gal(b1-4)Glc
# Summary of the method: as §1
# [35] = target: Neu5Ac(a2-3)[GalNAc(b1-4)]Gal(b1-4)GlcNAc
# Summary of the method: as §1
# [36] = target: Neu5Ac(a2-3)[GalNAc(b1-4)]Gal(b1-4)GlcNAc(b1-3)GalNAc
# Summary of the method: as §1
binder,measurement,setting,value
B1,glycan array binding signal (z-score),[1],0.431
same,glycan array binding signal (z-score),[2],-0.646
same,glycan array binding signal (z-score),[3],-0.646
same,glycan array binding signal (z-score),[4],0.617
same,glycan array binding signal (z-score),[5],-0.5
same,glycan array binding signal (z-score),[6],-1.01
same,glycan array binding signal (z-score),[7],-0.291
same,glycan array binding signal (z-score),[8],0.517
same,glycan array binding signal (z-score),[9],-1.16
same,glycan array binding signal (z-score),[10],9.34
same,glycan array binding signal (z-score),[11],-0.6
same,glycan array binding signal (z-score),[12],0.572
same,glycan array binding signal (z-score),[13],-0.482
same,glycan array binding signal (z-score),[14],-0.639
same,glycan array binding signal (z-score),[15],0.167
same,glycan array binding signal (z-score),[16],-0.219
same,glycan array binding signal (z-score),[17],-0.546
same,glycan array binding signal (z-score),[18],1.93
same,glycan array binding signal (z-score),[19],-0.584
same,glycan array binding signal (z-score),[20],0.617
same,glycan array binding signal (z-score),[21],-0.547
same,glycan array binding signal (z-score),[22],-0.682
same,glycan array binding signal (z-score),[23],-1.1
same,glycan array binding signal (z-score),[24],-0.124
same,glycan array binding signal (z-score),[25],-0.088
same,glycan array binding signal (z-score),[26],0.626
same,glycan array binding signal (z-score),[27],0.425
same,glycan array binding signal (z-score),[28],1.06
same,glycan array binding signal (z-score),[29],-0.377
same,glycan array binding signal (z-score),[30],0.903
same,glycan array binding signal (z-score),[31],-0.093
same,glycan array binding signal (z-score),[32],0.285
same,glycan array binding signal (z-score),[33],0.215
same,glycan array binding signal (z-score),[34],-0.398
same,glycan array binding signal (z-score),[35],-0.627
same,glycan array binding signal (z-score),[36],-0.255

# Looked up one by one from the list above:
binder,measurement,setting,value
B1,glycan array binding signal (z-score),[12],0.572
same,glycan array binding signal (z-score),[22],-0.682
